For test [1], the target named is T1, FLAG-tagged secreted extracellular domain of HephD568H (residues 1-1107) (human) (UniProt Q9BQS7).
T1 sequence: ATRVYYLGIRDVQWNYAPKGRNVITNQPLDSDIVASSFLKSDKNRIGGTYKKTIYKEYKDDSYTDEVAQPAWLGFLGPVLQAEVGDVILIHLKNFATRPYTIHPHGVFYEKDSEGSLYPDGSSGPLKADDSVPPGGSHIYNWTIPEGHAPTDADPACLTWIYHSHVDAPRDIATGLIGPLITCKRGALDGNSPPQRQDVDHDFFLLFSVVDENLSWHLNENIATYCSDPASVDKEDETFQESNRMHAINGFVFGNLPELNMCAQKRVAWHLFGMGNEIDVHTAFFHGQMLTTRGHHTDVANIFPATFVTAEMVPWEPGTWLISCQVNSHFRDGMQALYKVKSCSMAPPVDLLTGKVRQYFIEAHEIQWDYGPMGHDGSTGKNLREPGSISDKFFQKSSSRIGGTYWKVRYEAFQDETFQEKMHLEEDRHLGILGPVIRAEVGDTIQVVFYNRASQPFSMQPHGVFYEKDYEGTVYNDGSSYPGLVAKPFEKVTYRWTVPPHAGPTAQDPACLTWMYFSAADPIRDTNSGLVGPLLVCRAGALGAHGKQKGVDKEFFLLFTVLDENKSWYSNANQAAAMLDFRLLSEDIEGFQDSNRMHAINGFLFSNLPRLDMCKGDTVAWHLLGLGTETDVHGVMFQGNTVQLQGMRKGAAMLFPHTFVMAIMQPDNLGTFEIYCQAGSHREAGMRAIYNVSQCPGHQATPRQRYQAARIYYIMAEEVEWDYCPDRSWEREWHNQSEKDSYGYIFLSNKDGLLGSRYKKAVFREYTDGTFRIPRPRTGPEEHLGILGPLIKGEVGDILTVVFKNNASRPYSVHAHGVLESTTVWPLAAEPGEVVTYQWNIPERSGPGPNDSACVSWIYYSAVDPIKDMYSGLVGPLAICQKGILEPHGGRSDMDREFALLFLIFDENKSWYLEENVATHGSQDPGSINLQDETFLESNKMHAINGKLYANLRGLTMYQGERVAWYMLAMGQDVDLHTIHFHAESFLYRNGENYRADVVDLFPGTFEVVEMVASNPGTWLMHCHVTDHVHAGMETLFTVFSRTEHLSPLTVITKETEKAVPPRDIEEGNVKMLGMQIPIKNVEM
The experiment in a line: pull-down; FLAG-tagged sec-Heph purified from HEK293T culture medium on FLAG-trap resin; equal amounts of each affinity resin incubated with apo-Tfn or holo-Tfn; pulled-down Tfn quantified by Western blot; both purified.

Sequences of proteins named here, by UniProt entry; tags and fusion partners are left off. Residues count along the entry.
UniProt P02787, residues 20-698: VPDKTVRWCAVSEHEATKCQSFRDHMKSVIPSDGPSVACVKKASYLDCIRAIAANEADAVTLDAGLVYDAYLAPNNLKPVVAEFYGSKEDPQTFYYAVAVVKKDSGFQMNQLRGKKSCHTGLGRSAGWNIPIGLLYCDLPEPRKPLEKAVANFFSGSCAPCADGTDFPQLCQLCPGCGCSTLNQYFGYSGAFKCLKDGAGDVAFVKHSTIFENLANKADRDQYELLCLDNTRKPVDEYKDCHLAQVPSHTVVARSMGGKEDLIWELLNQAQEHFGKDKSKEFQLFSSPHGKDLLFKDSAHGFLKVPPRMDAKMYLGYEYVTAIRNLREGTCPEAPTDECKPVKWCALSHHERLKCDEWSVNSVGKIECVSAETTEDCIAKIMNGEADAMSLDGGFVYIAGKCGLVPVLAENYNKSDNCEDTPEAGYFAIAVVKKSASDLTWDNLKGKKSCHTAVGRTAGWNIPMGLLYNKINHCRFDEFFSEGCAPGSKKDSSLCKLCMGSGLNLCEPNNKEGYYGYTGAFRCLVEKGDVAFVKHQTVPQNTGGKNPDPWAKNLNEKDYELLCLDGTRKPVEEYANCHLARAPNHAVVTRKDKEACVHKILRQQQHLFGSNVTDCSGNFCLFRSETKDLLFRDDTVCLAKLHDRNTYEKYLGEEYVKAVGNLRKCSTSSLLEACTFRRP

Test [2] addresses T2, Human ferroportin tagged with GFP (human) (UniProt Q9NP59).
T2 sequence: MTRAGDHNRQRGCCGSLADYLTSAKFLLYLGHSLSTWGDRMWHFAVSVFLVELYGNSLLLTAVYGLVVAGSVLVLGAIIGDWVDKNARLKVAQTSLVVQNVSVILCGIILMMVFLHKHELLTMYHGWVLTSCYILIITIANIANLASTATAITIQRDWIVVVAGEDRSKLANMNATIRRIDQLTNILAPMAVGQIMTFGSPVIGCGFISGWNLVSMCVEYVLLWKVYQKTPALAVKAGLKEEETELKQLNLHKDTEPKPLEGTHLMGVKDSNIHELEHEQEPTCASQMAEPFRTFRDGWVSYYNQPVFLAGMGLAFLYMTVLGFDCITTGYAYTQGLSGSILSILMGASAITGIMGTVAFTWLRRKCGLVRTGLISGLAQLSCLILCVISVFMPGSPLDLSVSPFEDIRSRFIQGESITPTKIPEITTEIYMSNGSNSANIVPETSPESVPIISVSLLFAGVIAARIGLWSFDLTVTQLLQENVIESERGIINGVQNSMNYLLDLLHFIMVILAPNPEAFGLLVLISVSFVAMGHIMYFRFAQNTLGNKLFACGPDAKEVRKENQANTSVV
The test is described as follows: co-IP; HEK293T co-transfected with Fpn1-GFP and HephWT or HephD568H; cells cross-linked before lysis with DSP (0.5 mM, 30 min, 4 °C, membrane-permeable) or DTSSP (1.5 mM, 2 h, 4 °C, membrane-impermeable); RIPA lysate; Fpn1-GFP precipitated with GFP-trap agarose, 1 h at 4 °C; Heph detected by anti-Heph ….

These are yes or no findings as the source states them, for the method shown. For part of these data: In cells and extracts the contact can be indirect. Some results given as binding are weak or reduced against the parent protein; the word gives no strength. Tags and fused reporters may be left off the sequences shown.

Take “Holo-transferrin (iron-loaded transferrin) (from UniProt P02787 20-698)”: in test [1], the binding entry is recorded as “binds”.

B1: Full-length human hephaestin, wild type, with a C-terminal FLAG-tag (enzyme, UniProt Q9BQS7-1 24-1158)
chain: ATRVYYLGIRDVQWNYAPKGRNVITNQPLDSDIVASSFLKSDKNRIGGTYKKTIYKEYKDDSYTDEVAQPAWLGFLGPVLQAEVGDVILIHLKNFATRPYTIHPHGVFYEKDSEGSLYPDGSSGPLKADDSVPPGGSHIYNWTIPEGHAPTDADPACLTWIYHSHVDAPRDIATGLIGPLITCKRGALDGNSPPQRQDVDHDFFLLFSVVDENLSWHLNENIATYCSDPASVDKEDETFQESNRMHAINGFVFGNLPELNMCAQKRVAWHLFGMGNEIDVHTAFFHGQMLTTRGHHTDVANIFPATFVTAEMVPWEPGTWLISCQVNSHFRDGMQALYKVKSCSMAPPVDLLTGKVRQYFIEAHEIQWDYGPMGHDGSTGKNLREPGSISDKFFQKSSSRIGGTYWKVRYEAFQDETFQEKMHLEEDRHLGILGPVIRAEVGDTIQVVFYNRASQPFSMQPHGVFYEKDYEGTVYNDGSSYPGLVAKPFEKVTYRWTVPPHAGPTAQDPACLTWMYFSAADPIRDTNSGLVGPLLVCRAGALGADGKQKGVDKEFFLLFTVLDENKSWYSNANQAAAMLDFRLLSEDIEGFQDSNRMHAINGFLFSNLPRLDMCKGDTVAWHLLGLGTETDVHGVMFQGNTVQLQGMRKGAAMLFPHTFVMAIMQPDNLGTFEIYCQAGSHREAGMRAIYNVSQCPGHQATPRQRYQAARIYYIMAEEVEWDYCPDRSWEREWHNQSEKDSYGYIFLSNKDGLLGSRYKKAVFREYTDGTFRIPRPRTGPEEHLGILGPLIKGEVGDILTVVFKNNASRPYSVHAHGVLESTTVWPLAAEPGEVVTYQWNIPERSGPGPNDSACVSWIYYSAVDPIKDMYSGLVGPLAICQKGILEPHGGRSDMDREFALLFLIFDENKSWYLEENVATHGSQDPGSINLQDETFLESNKMHAINGKLYANLRGLTMYQGERVAWYMLAMGQDVDLHTIHFHAESFLYRNGENYRADVVDLFPGTFEVVEMVASNPGTWLMHCHVTDHVHAGMETLFTVFSRTEHLSPLTVITKETEKAVPPRDIEEGNVKMLGMQIPIKNVEMLASVLVAISVTLLLVVLALGGVVWYQHRQRKLRRNRRSILDDSFKLLSFKQ
With B1, the binding entry in test [2] is “binds”.

B2: Full-length human hephaestin variant D568H with a C-terminal FLAG-tag (enzyme, UniProt Q9BQS7-1 24-1158)
chain: ATRVYYLGIRDVQWNYAPKGRNVITNQPLDSDIVASSFLKSDKNRIGGTYKKTIYKEYKDDSYTDEVAQPAWLGFLGPVLQAEVGDVILIHLKNFATRPYTIHPHGVFYEKDSEGSLYPDGSSGPLKADDSVPPGGSHIYNWTIPEGHAPTDADPACLTWIYHSHVDAPRDIATGLIGPLITCKRGALDGNSPPQRQDVDHDFFLLFSVVDENLSWHLNENIATYCSDPASVDKEDETFQESNRMHAINGFVFGNLPELNMCAQKRVAWHLFGMGNEIDVHTAFFHGQMLTTRGHHTDVANIFPATFVTAEMVPWEPGTWLISCQVNSHFRDGMQALYKVKSCSMAPPVDLLTGKVRQYFIEAHEIQWDYGPMGHDGSTGKNLREPGSISDKFFQKSSSRIGGTYWKVRYEAFQDETFQEKMHLEEDRHLGILGPVIRAEVGDTIQVVFYNRASQPFSMQPHGVFYEKDYEGTVYNDGSSYPGLVAKPFEKVTYRWTVPPHAGPTAQDPACLTWMYFSAADPIRDTNSGLVGPLLVCRAGALGAHGKQKGVDKEFFLLFTVLDENKSWYSNANQAAAMLDFRLLSEDIEGFQDSNRMHAINGFLFSNLPRLDMCKGDTVAWHLLGLGTETDVHGVMFQGNTVQLQGMRKGAAMLFPHTFVMAIMQPDNLGTFEIYCQAGSHREAGMRAIYNVSQCPGHQATPRQRYQAARIYYIMAEEVEWDYCPDRSWEREWHNQSEKDSYGYIFLSNKDGLLGSRYKKAVFREYTDGTFRIPRPRTGPEEHLGILGPLIKGEVGDILTVVFKNNASRPYSVHAHGVLESTTVWPLAAEPGEVVTYQWNIPERSGPGPNDSACVSWIYYSAVDPIKDMYSGLVGPLAICQKGILEPHGGRSDMDREFALLFLIFDENKSWYLEENVATHGSQDPGSINLQDETFLESNKMHAINGKLYANLRGLTMYQGERVAWYMLAMGQDVDLHTIHFHAESFLYRNGENYRADVVDLFPGTFEVVEMVASNPGTWLMHCHVTDHVHAGMETLFTVFSRTEHLSPLTVITKETEKAVPPRDIEEGNVKMLGMQIPIKNVEMLASVLVAISVTLLLVVLALGGVVWYQHRQRKLRRNRRSILDDSFKLLSFKQ
Regarding B2, in test [2], the binding result is reported as “binds”.
